In all, about 400,000 compounds went through this assay and about 5,500 (1.4%) were called active. Inconclusive results, whose numbers are uncertain, are shown with a selection of clear calls. Calls follow the shape of the dose curve; as a rule, active = well fitted cell-killing curve with a large enough effect; inconclusive = small, poorly fitted or top-dose-only effect, or effect the other way; inactive = flat fitted curve, though single readings scatter. Potencies beside an inconclusive call are fits to weak or partial responses and may not hold up.
experiment: qHTS assay for MDR1-selective chemotherapeutics: Primary screen using the parental adenocarcinoma cell KB-3-1; details: KB-3-1 viability, CellTiter-Glo ATP luminescence, 72 h; series mostly up to 46.1 µM; also: nearly all actives have a fitted effect of over 60% in size
Summary of the method: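 Cytotoxicity measured as CellTiter-Glo luminescence after 72 h at 37 C. Compound titrations were pinned onto drug-naive KB-3-1 parental adenocarcinoma cells grown in DMEM with 10% FBS, and normalized data fitted to concentration-response curves.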
Potency is read from the fitted curve at half-maximal effect.

Structure (SMILES)	Potency
O=C(Nc1ccccc1Br)c1ccccc1-c1ccccc1	active: 7.31 µM
CCc1ccc(-n2c(=O)c3c(C)c(C)sc3n(CC(=O)NCc3ccc(C)cc3)c2=O)cc1	inactive
COc1ccc(CCN(Cc2nc3ccccc3c(=O)[nH]2)C(=O)C2CC2)cc1	inconclusive: 25.9 µM [cytotoxic, single point]
CCOC(=O)c1ccc(NC(=O)/C(C#N)=C/c2ccc(OC)cc2)cc1	inconclusive: 14.6 µM [rising, single point]
O=S(=O)(c1ccccc1C(F)(F)F)N1CCC(n2cnc3ccccc32)CC1	inactive
OC[C@H]1O[C@H](c2nc(-c3nc(-c4cccc(-n5cccc5)c4)no3)cs2)C[C@@H]1O	inactive
COc1ccc(C2c3c(ncn(CCN4CCOCC4)c3=N)Oc3ccc4ccccc4c32)cc1OC (configuration not stated)	inconclusive: 29.1 µM [cytotoxic, single point]
CCOC(=O)C1=C(N)Oc2c(oc(CO)cc2=O)C1c1ccc(Cl)cc1 (configuration not stated)	inconclusive: 11.6 µM [rising, partial curve, poor fit]
COc1cccc(Cn2c(=O)c3ccccc3n3nc(C)cc23)c1	inconclusive: 20.6 µM [cytotoxic, single point]
COc1cc(/C=C2/C(=O)ON=C2C)ccc1OCc1ccccc1F	inconclusive: 29.1 µM [rising, single point]
CCOc1ccc(N(CC(=O)NCc2ccc(Cl)cc2)S(=O)(=O)c2ccccc2)cc1	inactive
O=C(COc1ccc(Cl)cc1Cl)Nc1cccc(-c2ccc(N3CCOCC3)nn2)c1	inactive
CC(C)(C)OC(=O)NCc1ccc(CNC(=O)c2nc[nH]c2C(=O)N2CCN(C(=O)OC(C)(C)C)CC2)cc1	inconclusive: 16.4 µM [cytotoxic, single point]
COc1ccc(CNCC(=O)Nc2ccccc2-n2cccc2)cc1	inconclusive: 29.1 µM [cytotoxic, single point]
O=C(CCCCn1c(=O)c2ccccc2n(Cc2ccc(F)cc2)c1=O)NCc1ccco1	active: 11.6 µM
COc1cc(OC)c(C(=O)C=Cc2ccc(OC)c(OC)c2)c(OC)c1	inconclusive: 4.61 µM [cytotoxic, full curve, poor fit]
Cc1ccccc1N(C(=O)CCC(=O)Nc1ccccn1)C(C(=O)NC(C)C)c1ccc(F)cc1 (configuration not stated)	inconclusive: 20.6 µM [cytotoxic, single point]
Cc1cc(C)nc(Sc2ncnc(N)c2[N+](=O)[O-])n1	inconclusive: 29.1 µM [cytotoxic, single point]
c1cc2c(cc1C1CCCCC1)c1c3n2CCCNC3CCC1 (configuration not stated)	active: 18.4 µM
O=C(CCC1N=C2c3ccccc3N=C(SCc3ccc(Cl)cc3)N2C1=O)NCCc1ccccc1 (configuration not stated)	inconclusive: 23.1 µM [cytotoxic, single point]
COc1ccccc1C(=O)NCC(=O)NCCSc1ccc(Br)cc1	inconclusive: 0.0291 µM [rising, full curve]
Cc1cccc(OCCCCc2c(C)n[nH]c2C)c1	inactive
CCOc1ccc(NCc2nc3ccccc3n2CCOc2ccccc2)cc1	inconclusive: 25.9 µM [cytotoxic, single point]
CCOc1ccc(C(=O)NCC(=O)OCC(=O)N2CCCCC2)cc1	inconclusive: 0.259 µM [rising, full curve]

Among those listed so far, these have a Cl atom.
Structure (SMILES)	Potency
CCOC(=O)C1=C(N)Oc2c(oc(CO)cc2=O)C1c1ccc(Cl)cc1 (configuration not stated)	inconclusive: 11.6 µM [rising, partial curve, poor fit]
CCOc1ccc(N(CC(=O)NCc2ccc(Cl)cc2)S(=O)(=O)c2ccccc2)cc1	inactive
O=C(COc1ccc(Cl)cc1Cl)Nc1cccc(-c2ccc(N3CCOCC3)nn2)c1	inactive
O=C(CCC1N=C2c3ccccc3N=C(SCc3ccc(Cl)cc3)N2C1=O)NCCc1ccccc1 (configuration not stated)	inconclusive: 23.1 µM [cytotoxic, single point]

Additional records

Structure (SMILES)	Potency
CCOC(=O)c1c(S(=O)(=O)NCC(=O)N2CCN(c3ccccc3)CC2)c(C)n(C)c1C	inactive
CCOC(=O)C(C)(C)NS(=O)(=O)c1ccc(Cl)c([N+](=O)[O-])c1	inconclusive: 29.1 µM [cytotoxic, single point]
COc1cccc(Cn2nnc(C(=O)Nc3cc(Cl)ccc3OC)c2N)c1	inconclusive: 16.4 µM [cytotoxic, single point]
CC(=O)Nc1ccc(-c2nc3cc(Cl)ccc3o2)cc1	inactive
Cc1cc(-c2nc3cc(F)ccc3s2)ccc1N	inconclusive: 29.1 µM [cytotoxic, single point]
Nc1nc(Br)c2c(F)cccc2c1-c1ccc(Cl)cc1	inactive
CSc1nnc(NC(=O)c2nc(S(=O)(=O)Cc3ccccc3F)ncc2Cl)s1	inconclusive: 16.4 µM [cytotoxic, single point]
O=C(Nn1cc(C(=O)N2CCN(c3ccccc3F)CC2)c2ccccc2c1=O)c1cnccn1	inconclusive: 32.6 µM [cytotoxic, single point]
Cc1ccc(-n2cc(-c3ccccc3)nc2S(=O)(=O)CC(=O)Nc2ccc(F)cc2)cc1	inconclusive: 20.6 µM [cytotoxic, single point]
O=C(O)CCCN1C(=O)/C(=C\C(Cl)=C\c2ccccc2)SC1=S	inconclusive: 20.6 µM [cytotoxic, single point]
COc1ccc(C(=O)Oc2c(CN3CCOCC3)cc(Cl)c3cccnc23)cc1	active: 10.3 µM
CSCCC(=O)Nc1ccc(C(C)=O)cc1	inactive
CC(=O)c1ccc(N2CCN(C(=O)CCCc3nc4ccccc4s3)CC2)cc1	inactive
CC1(C(=O)NCc2ccc(C(F)(F)F)cc2)CCN1Cc1ccc(-c2ccccc2)o1 (configuration not stated)	inactive
Cn1cc(C(CC(=O)O)C(=O)O)c2ccccc21 (configuration not stated)	inconclusive: 1.84 µM [cytotoxic, partial curve, poor fit]
COc1ccc(OC)c(NC(=O)Cn2ccc3ccccc3c2=O)c1	inconclusive: 32.6 µM [cytotoxic, single point]
O=C(c1nc2ccccn2c1CN1CCCC(OCc2ccccc2)C1)N1CCCC1 (configuration not stated)	inconclusive: 11.6 µM [rising, partial curve, poor fit]
COc1ccc(CN(C)c2ccc(S(=O)(=O)N3CCN(C)CC3)cc2[N+](=O)[O-])cc1OC	inconclusive: 1.46 µM [cytotoxic, full curve]
CN(C)c1ncnc2c1ncn2[C@H]1CN(Cc2ccc(-c3ccccc3)cc2)C[C@@H](CO)O1	inactive
CSc1ncnc2c1ncn2CCCNCc1ccccn1	inconclusive: 29.1 µM [rising, single point]
COc1cccc(S(=O)(=O)Nc2ccc(C(=O)Nc3ccncc3)cc2)c1	inconclusive: 16.4 µM [cytotoxic, single point]
CN(C)S(=O)(=O)c1ccc(Cl)c(NC(=O)CN2C(=O)NC(C)(C3CC3)C2=O)c1 (configuration not stated)	inconclusive: 29.1 µM [cytotoxic, single point]
Cc1ccc(C)c2[nH]c(=O)c(CN(Cc3nnnn3C3CCCCC3)CC3CCCO3)cc12 (configuration not stated)	inactive
Cc1ccc(-c2nc(N/N=C/c3ccncc3)c3ccccc3n2)cc1	inconclusive: 23.1 µM [cytotoxic, single point]

Structure (SMILES)	Potency
Cc1ccc2c(c1)C(c1ccccc1)N(C(=O)c1ccc3c(c1)OCO3)CC(=O)N2 (configuration not stated)	inactive
COc1ccc2c(c1)CCC1=C2NC(=S)NC1c1ccc(N(C)C)cc1 (configuration not stated)	inconclusive: 20.6 µM [cytotoxic, single point]
Cc1ccc2nc(-c3ccc(NS(=O)(=O)c4c(C)n(C)c(=O)n(C)c4=O)cc3)sc2c1	inactive
Cc1ccc(CN2CCN(C3CCN(C(=O)c4ccccc4)CC3)C(=O)C2=O)cc1	inactive
COc1ccc(CCNC(=O)C2CCN(Cc3nc(-c4ccccc4F)oc3C)CC2)cc1OC	inactive
C=C(C)COc1ccc(-c2[nH]ncc2-c2ccc(OC)cc2)c(O)c1	inactive
Cc1cc(C(=O)NCC(c2ccco2)N2CCCC2)c2ccccc2n1 (configuration not stated)	inactive
COc1cccc(Nc2nc(CN)cs2)n1	inconclusive: 20.6 µM [cytotoxic, single point]
COC(=O)c1cc2c(ccn2-c2ccc(F)cc2)n1Cc1ccc(OC)cc1	inactive
O=C(NCC(c1ccco1)N1CCCCC1)c1ccc(COc2ccc(Cl)cc2)cc1 (configuration not stated)	inconclusive: 29.1 µM [cytotoxic, single point]
O=C(c1ccc(Cl)cc1)c1c[nH]cc1-c1ccccc1	inconclusive: 16.4 µM [rising, single point]
COc1cc(/C=C/C(=O)OCC(=O)N2CCCC2)cc(OC)c1OC	inactive
Cc1cc(=O)[nH]c(Nc2cccc(C(F)(F)F)c2)n1	inconclusive: 20.6 µM [cytotoxic, single point]
CC(=O)c1ccccc1C(=O)N1CCC(CCC(=O)NCc2ccc(F)cc2)CC1	inactive
O=C(NCCCN1CCOCC1)C(=O)N/N=C/c1c2ccccc2cc2ccccc12	active: 5.8 µM
CCN(CC)CCCNC(=O)c1cn(CC)c2ccc(S(=O)(=O)N3CCc4ccccc4C3)cc2c1=O	inconclusive: 18.4 µM [cytotoxic, partial curve, poor fit]
Cc1cc(Nc2ccc(C(C)C)cc2)n2ncnc2n1	active: 14.6 µM
O=C(O)C1CC=CCC1C(=O)NNS(=O)(=O)c1ccccc1 (configuration not stated)	inconclusive: 0.0073 µM [cytotoxic, full curve]
O=C(O)c1ccc2cccnc2n1	inconclusive: 29.1 µM [rising, single point]
CC(C)c1nc2scc(-c3ccc(Cl)cc3)c2c(=O)n1N	inactive
CC(=O)c1sc2c(c1OC(=O)c1ccc(Cl)cc1)c(=O)n(-c1ccccc1)c(=S)n2-c1ccccc1	inconclusive: 18.4 µM [cytotoxic, single point]
CCN(Cc1ccccc1)C(=O)Cn1cc(S(=O)(=O)Cc2cccc(Cl)c2)c2ccccc21	inactive
Cc1ccc(O)c(NC(=O)c2ccc(Br)c(S(=O)(=O)N3CCCCC3)c2)c1	inactive
Cc1ccc(OCC(=O)c2cc(C)n(-c3ccccc3)c2C)c([N+](=O)[O-])n1	active: 8.2 µM

Source: PubChem BioAssay AID1347075 (National Center for Advancing Translational Sciences (NCATS), 2019)
